# Measured values published in article PMC2363476 (British Journal of Cancer, 2000).
# Tested on: patients with advanced GI tract adenocarcinoma
# Conditions: for dose intensity: dose level VI; for dose intensity (DI) for each drug, percentage of intended: dose levels I-VI
# [1] = dose level VII, first six cycles
Structure (SMILES),dose intensity,"raltitrexed dose intensity (DI), percentage of intended [1]","dose intensity (DI) for each drug, percentage of intended (first six cycles)","irinotecan dose intensity (DI), percentage of intended [1]"
Cc1nc2ccc(CN(C)c3ccc(C(=O)N[C@@H](CCC(=O)O)C(=O)O)s3)cc2c(=O)[nH]1 [raltitrexed],over 90%,66%,~100%,
"CCc1c2c(nc3ccc(OC(=O)N4CCC(N5CCCCC5)CC4)cc13)-c1cc3c(c(=O)n1C2)COC(=O)[C@]3(O)CC [irinotecan, Irinotecan hydrochloride]",over 90%,,~100%,83%

# Counter-ions that a name gives are not always drawn.
